Results from PubChem BioAssay AID2685 (National Center for Advancing Translational Sciences (NCATS), 2010).
This is one part of the list. Further columns of the screen follow, without active or inactive calls. Most of these compounds were active or inconclusive in the main read-out, so they are no random draw. Words in brackets tell the shape of the fitted curve; partial curves, single points and poor fits give uncertain potencies.

Test: qHTS Assay for Lipid Storage Modulators in Drosophila S3 Cells;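 on cell number change: cells counted by Cell Tracker Red CMTPX staining in the red channel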
Conditions: BODIPY lipid droplet fluorescence, 18-24 h; for cell number change: measured here: cell count max response, cells fed with added oleic acid
Method in brief: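 Drosophila S3 cells loaded with oleic acid (400 uM, as added) and compounds at several concentrations; lipid droplets imaged by 488-nm laser-scanning cytometry, 500–530 nm intensity and object ratio to cell channel. Percent activity normalized to 20 uM Triacsin C.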

[1] = measured here: lipid fluorescence (Fed channel) AC50, cells fed with added oleic acid
[2] = measured here: cell number channel AC50, cells fed with added oleic acid

## Brc1ccc(CSc2nnc(-c3ccccn3)n2Cc2ccco2)cc1
  cell number change: -28.4%
[1]
  AC50: 14.6 µM [rising, partial curve]

## CCCCc1nc(SCCOC)c2c(=O)n(C)c(=O)n(C)c2n1
[2]
  AC50: 3.66 µM [rising, partial curve, poor fit]
[1]
  AC50: 4.11 µM [rising, full curve, poor fit]

## COc1cc(NC(=O)CN(c2ccc(C)cc2)S(=O)(=O)c2c(C)nn(C)c2C)cc(OC)c1
  cell number change: -8.73%

## CCC(C)(C)n1nnnc1CN1CCSCC1
  cell number change: -4.79%
[1]
  AC50: 16.4 µM [falling, partial curve]

## CCOc1ccc(S(=O)(=O)N2CCN(C(=O)C3CCC3)CC2)cc1
  cell number change: 32.5%
[2]
  AC50: 13 µM [rising, partial curve]
[1]
  AC50: 29.1 µM [rising, single point]

## CCOc1ccc(Br)cc1S(=O)(=O)Nc1ccc(C(=O)Nc2ccccc2OC)cc1
  cell number change: 22.1%
[2]
  AC50: 0.00461 µM [falling, full curve, poor fit]

## CC(C)(C)c1cc(NC(=O)c2ccco2)no1
  cell number change: 11.4%

## Cc1c(Cl)cccc1NC(=O)Cn1cccc1
  cell number change: 20.3%
[1]
  AC50: 6.51 µM [falling, partial curve]

## COc1ccc(-c2nc3ccccc3n2CCC(C)C)cc1OC
  cell number change: 62.3%
[2]
  AC50: 1.46 µM [rising, partial curve]

## O=C(Nc1cccc(-c2nc3ncccc3o2)c1)c1sc2ccccc2c1Cl
  cell number change: 6.32%
[1]
  AC50: 0.146 µM [rising, full curve, poor fit]

## O=S(=O)(c1ccc2c(c1)CCN2)N1CCOCC1
  cell number change: 2.71%
[1]
  AC50: 0.259 µM [rising, full curve]

## COc1cc(/C=C/C(=O)OCC(=O)NC(=O)NC(C)C)cc(S(=O)(=O)N2CCc3ccccc32)c1OC
  cell number change: 14.3%
[1]
  AC50: 3.26 µM [rising, full curve]

## Cc1ccc(C(=O)Nc2cc(=O)n(C)c(=O)n2C)cc1C
[1]
  AC50: 0.00461 µM [rising, full curve, poor fit]

## CCOC(=O)N1CCN(C(=O)c2cc3c(s2)-c2ccccc2OC3)CC1
  cell number change: 64.7%
[2]
  AC50: 14.6 µM [rising, partial curve]

## Cn1c(=O)c2c(nc(CN3CCOCC3)n2CC(O)CO)n(C)c1=O (configuration not stated)
  cell number change: 2.97%
[1]
  AC50: 18.4 µM [falling, partial curve, poor fit]

## Cc1ccc(C)c(S(=O)(=O)c2c(C)cc(C)[nH]c2=O)c1
  cell number change: -12.2%
[1]
  AC50: 13 µM [rising, partial curve, poor fit]

## Cc1ccccc1NC(=O)C(=O)N/N=C/c1cccc(Br)c1
  cell number change: 12%
[1]
  AC50: 2.31 µM [rising, partial curve]

## Cc1ccc(C(=O)NC2CCCc3ccccc32)cc1[N+](=O)[O-] (configuration not stated)
  cell number change: -2.7%
[1]
  AC50: 29.1 µM [rising, single point]

## CCOC(=O)c1ccc(-c2ccc(/C=C(\C#N)C(=O)NCC3CCCO3)o2)cc1 (configuration not stated)
  cell number change: 35.2%
[2]
  AC50: 18.4 µM [rising, single point]
[1]
  AC50: 25.9 µM [rising, single point]

## CCOc1ccccc1/C=C/c1onc(C)c1S(=O)(=O)N1CCC(C(=O)NC)CC1
  cell number change: -11.5%

## CCn1nc(C)c(NC(=O)c2cc(Br)ccc2Cl)c1C
  cell number change: 20.3%

## O=C(NCC1CCCO1)c1cc2ccccc2[nH]1 (configuration not stated)
  cell number change: 0.249%
[2]
  AC50: 0.116 µM [falling, full curve, poor fit]

## O=C(Nc1nccs1)C1CC(=O)N(c2ccccc2)C1 (configuration not stated)
  cell number change: 5.26%
[1]
  AC50: 5.62 µM [rising, single point]

## COc1ccccc1CCCNC(=O)C1CCC(=O)N(CCc2cccc(F)c2)C1 (configuration not stated)
  cell number change: -22.6%
[2]
  AC50: 0.0891 µM [falling, full curve, poor fit]
[1]
  AC50: 35.5 µM [falling, single point]

## Cc1cc(OC(=O)c2cc(C(F)(F)F)cc(C(F)(F)F)c2)c([N+](=O)[O-])c(=O)[nH]1
  cell number change: 17.7%
[2]
  AC50: 1.84 µM [rising, partial curve]

## CN(C(=O)c1cccs1)c1ccc(OCC(=O)Nc2ccc(C(=O)O)cc2)cc1
  cell number change: -27.6%
[1]
  AC50: 0.00461 µM [falling, full curve, poor fit]

## CCSc1nnc(-c2ccc(S(=O)(=O)N3CCCC3)cc2)n1C
  cell number change: 16.5%

## CCN1C(=O)CC(N2CCN(c3ccc(C(=O)c4ccncc4)cc3)CC2)C1=O (configuration not stated)
  cell number change: 44.3%
[2]
  AC50: 20.6 µM [rising, single point]

## Cc1cc(O)c(C(=O)/C=C/c2ccccc2O)c(=O)o1
  cell number change: -9.01%
[2]
  AC50: 6.51 µM [rising, single point]

## CCOc1ccc(-c2c(C(=O)N/N=C/c3cccc(Br)c3)nnn2-c2nonc2N)cc1
  cell number change: 2.28%

## COc1ccc(C2C(C(N)=O)=C(C)Nc3nc(-c4ccccc4Cl)nn32)c(OC)c1 (configuration not stated)
  cell number change: 9.53%

## CC1CCCC(C)N1C(=O)COC(=O)c1n[nH]c(=O)c2ccccc12 (configuration not stated)
  cell number change: 5.41%
[2]
  AC50: 5.8 µM [rising, single point]
[1]
  AC50: 4.11 µM [rising, partial curve, poor fit]

## CCC1CCCCN1C1Sc2ccc(C(=O)OC)cc2NC1=O (configuration not stated)
[1]
  AC50: 3.26 µM [rising, single point]

## c1ccc(CN2CCC(Nc3nc(-c4ccccc4)nc4ccccc34)CC2)cc1
  cell number change: -92.6%
[1]
  AC50: 25.9 µM [falling, single point]

## CC(Sc1ccc(S(=O)(=O)N2CCN(C)CC2)cn1)C(=O)NC1CCCCC1 (configuration not stated)
  cell number change: -5.57%
[1]
  AC50: 0.82 µM [rising, full curve, poor fit]

## Cc1cc(C)nc(N(C#N)CC(=O)c2ccccc2)n1
  cell number change: -5.55%
[1]
  AC50: 2.06 µM [rising, partial curve]

## CCC(C)Oc1ccc(C(=O)Nc2ccc(CN3CCOCC3)cc2)cc1 (configuration not stated)
  cell number change: -1.4%

## CCSc1nnc(NC(=O)COc2cccc3ccccc23)s1
  cell number change: -33.1%
[2]
  AC50: 5.8 µM [falling, full curve, poor fit]
[1]
  AC50: 29.1 µM [falling, single point]

## CCCn1c(N)c(C(=O)COC(=O)CCNS(=O)(=O)c2ccccc2F)c(=O)[nH]c1=O
  cell number change: 5.76%
[1]
  AC50: 7.31 µM [falling, partial curve]

## O=C(CNC(=O)c1ccco1)N/N=C/c1ccc(O)cc1O
  cell number change: -75.7%
[2]
  AC50: 25.9 µM [falling, partial curve]

## CCn1c(SCC(=O)Nc2nc(-c3ccc(C)cc3)cs2)nnc1-c1ccccc1
  cell number change: -132%
[2]
  AC50: 29.1 µM [falling, single point]
[1]
  AC50: 23.1 µM [falling, partial curve, poor fit]

## CN1CCCc2cc(C#N)c(=O)[nH]c21
  cell number change: -36.3%
[2]
  AC50: 0.58 µM [falling, partial curve]
[1]
  AC50: 0.651 µM [falling, full curve]

## O=C(CN1C(=O)NC2(CCCC2)C1=O)Nc1cccc(C(F)(F)F)c1
  cell number change: 19.3%

## CC(=O)Oc1ccc(-c2nc(-c3cccnc3)no2)cc1
  cell number change: 74.3%
[2]
  AC50: 29.1 µM [rising, single point]
[1]
  AC50: 29.1 µM [rising, single point]

## COc1ccc(NC(=S)N2CCN(S(=O)(=O)c3ccc(C)cc3)CC2)cc1
  cell number change: -8.91%
[1]
  AC50: 0.58 µM [rising, single point]

## Cc1ccc(S(=O)(=O)c2nc(S(C)(=O)=O)sc2N2CCOCC2)cc1
  cell number change: -15.6%
[1]
  AC50: 4.11 µM [falling, single point]

## Cn1c(=O)c(=O)n(C)c2cc([N+](=O)[O-])c(N3CCOCC3)cc21
  cell number change: -11.8%

## COc1cccc2sc(N3CCN(c4nc5ccccc5s4)CC3)nc12
  cell number change: -0.364%

## COc1ccc(-c2ccccc2)cc1NCc1ccc(OC)c(OC)c1
  cell number change: 28.3%
[1]
  AC50: 8.2 µM [rising, partial curve]

## COc1ccccc1NC(=O)c1ccc(NC(=O)c2ccc(=O)[nH]c2)cc1
  cell number change: -6.43%

## CN(CC(=O)Nc1ccccc1Cl)C(=O)COC(=O)c1ccc(C(F)(F)F)cc1
  cell number change: 35.9%
[2]
  AC50: 25.9 µM [rising, single point]
[1]
  AC50: 25.9 µM [rising, single point]

## Cc1ccc(SC(c2ccc(C)cc2)C(Cn2cncn2)C(=O)c2ccccc2)cc1 (configuration not stated)
  cell number change: -4.64%
[2]
  AC50: 0.13 µM [rising, full curve, poor fit]

## COc1ccc(CCCNC(=O)C2CCC(=O)N(Cc3ccc(Cl)cc3)C2)cc1 (configuration not stated)
  cell number change: -16.3%

## CC(c1ccccc1)c1nnc(N)s1 (configuration not stated)
  cell number change: 18.5%

## NC(=O)Nc1ccc(C(=O)OCC(=O)NCc2ccc3c(c2)OCO3)cc1
  cell number change: 5.84%
[1]
  AC50: 3.26 µM [rising, partial curve]

## CC(=O)N1CCc2c(sc(NC(=O)CCS(=O)(=O)c3ccccc3)c2C(N)=O)C1
  cell number change: -14.5%
[1]
  AC50: 8.91 µM [falling, partial curve, poor fit]

## CSc1nnc(-c2cc3c(s2)-c2ccccc2CC3)o1
[1]
  AC50: 29.1 µM [rising, single point]

## CC(C)[C@@H](C(=O)NCC1CCC(C(=O)O)CC1)n1nnc2ccccc2c1=O (some centres not stated)
  cell number change: -1.75%
[1]
  AC50: 0.58 µM [falling, full curve]

## Cc1cccc(-n2ncc3c(N)ncnc32)c1
  cell number change: 85.7%
[2]
  AC50: 29.1 µM [rising, single point]

## CCOc1ccc(S(=O)(=O)N2CCCCC2)cc1NC(=O)C1CSC2(C)CCC(=O)N12 (configuration not stated)
  cell number change: 13.4%
[1]
  AC50: 29.1 µM [rising, single point]

## C=CCN(CC(=O)Nc1c(C)cccc1CC)C(=O)SCCC
  cell number change: 6.93%
[1]
  AC50: 0.731 µM [rising, single point]

## COc1cc(/C=N/NC(=O)Nc2ccccc2)ccc1OCCOc1ccccc1C
  cell number change: -43.6%
[2]
  AC50: 0.164 µM [falling, full curve, poor fit]
[1]
  AC50: 3.66 µM [rising, partial curve]
